Data as given in PubChem BioAssay AID493246 (Drosophila RNAi Screening Center, 2011)
The screen tested about 21,000 reagents; below is a random part of those that have a named target and a result. Of all reagents, 429 (2%) got an active call. 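Values are raw and not normalised between plates; calls rest on per-plate z-scores that were not deposited.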 A number with no mark means an inactive call. Not given: the amount of reagent, the time to read-out.

Screen: 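Identify essential fly genes by loss of cell viability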 (primary screen)
Cells: Drosophila Kc and S2R+ cells
Reagents: long dsRNA against Drosophila genes
Measurement: 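Raw, unnormalised count of remaining cells in each well; per-plate z-scores of cell number underlie the calls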
Scale: Kc cell number and S2R+ cell number: higher = more cells remaining
Hit rule: 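Counted as a hit if cell number falls by a z-score of at least 3 within its plate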

Gene,dsRNA,"Kc cell number, rep 1","Kc cell number, rep 2","S2R+ cell number, rep 1","S2R+ cell number, rep 2"
Blm,DRSC16911,1.75e6,1.88e6,1.26e6,1.32e6
flr,DRSC09787,1.26e6,1.32e6,1.37e6,1.06e6
Galphas,DRSC04616,1.42e6,1.59e6,1.09e6,9.51e5
CG3402,DRSC08567,1.30e6,1.48e6,1.05e6,1.25e6
CG14720,DRSC14942,1.37e6,1.41e6,1.35e6,1.41e6
CG4911,DRSC10456,1.23e6,1.41e6,1.25e6,1.11e6
RpL12,DRSC04344,9.85e5 (active),1.10e6,7.67e5,8.04e5
TTLL4A,DRSC02528,1.31e6,1.52e6,1.32e6,1.21e6
CG5126,DRSC00680,1.28e6,1.60e6,1.34e6,1.22e6
sqh,DRSC18837,5.76e5,,8.71e5,
CG10600,DRSC02074,1.28e6,1.32e6,1.26e6,1.29e6
MED27,DRSC12205,1.62e6,1.82e6,1.38e6,1.49e6
Rai1,DRSC20157,1.45e6,1.46e6,1.05e6,1.14e6
dib,DRSC08711,1.33e6,1.40e6,1.22e6,1.23e6
Skeletor (retired record),DRSC14905,1.47e6,1.56e6,1.21e6,1.33e6
Skeletor (retired record),DRSC14906,1.67e6,1.72e6,1.45e6,1.53e6
TFAM,DRSC15552,1.43e6,1.48e6,1.03e6,1.16e6
Tsp42Eq,DRSC06180,1.57e6,1.64e6,1.35e6,1.43e6
Or43b,DRSC07486,1.49e6,1.59e6,1.18e6,1.34e6
CG9664,DRSC00725,1.33e6,1.35e6,8.58e5,1.02e6
CG14448,DRSC11705,1.41e6,1.56e6,1.19e6,1.34e6
Gen,DRSC09679,1.42e6,1.46e6,1.36e6,1.29e6
Mnat9,DRSC14325,1.45e6,1.47e6,9.68e5,1.12e6
CG13029,DRSC09909,1.64e6,1.84e6,1.33e6,1.53e6

Records above with an active call, once more:
Gene,dsRNA,"Kc cell number, rep 1","Kc cell number, rep 2","S2R+ cell number, rep 1","S2R+ cell number, rep 2"
RpL12,DRSC04344,9.85e5 (active),1.10e6,7.67e5,8.04e5
